From publication PMC10279913 come the findings set out here.

The chains behind the UniProt entries cited, without tags or fusion partners. Where a name states a change or a piece, a line headed by the entry shows the natural chain unless it says otherwise. Residues count along the entry.
UniProt O95816: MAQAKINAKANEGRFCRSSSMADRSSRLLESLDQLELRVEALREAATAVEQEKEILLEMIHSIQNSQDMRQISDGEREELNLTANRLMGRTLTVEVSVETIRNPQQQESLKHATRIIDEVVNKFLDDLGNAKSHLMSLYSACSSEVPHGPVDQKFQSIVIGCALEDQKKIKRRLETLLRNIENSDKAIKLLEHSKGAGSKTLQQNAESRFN
UniProt P62316: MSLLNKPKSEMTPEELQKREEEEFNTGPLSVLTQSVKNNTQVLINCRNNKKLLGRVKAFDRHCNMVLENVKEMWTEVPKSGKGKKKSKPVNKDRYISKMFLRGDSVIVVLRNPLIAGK
UniProt P52926: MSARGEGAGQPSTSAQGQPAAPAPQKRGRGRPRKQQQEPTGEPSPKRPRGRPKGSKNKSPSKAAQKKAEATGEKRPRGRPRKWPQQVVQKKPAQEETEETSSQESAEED
UniProt P63167: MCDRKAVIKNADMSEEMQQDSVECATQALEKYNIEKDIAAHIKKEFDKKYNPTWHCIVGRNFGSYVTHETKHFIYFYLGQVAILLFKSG
UniProt Q92598: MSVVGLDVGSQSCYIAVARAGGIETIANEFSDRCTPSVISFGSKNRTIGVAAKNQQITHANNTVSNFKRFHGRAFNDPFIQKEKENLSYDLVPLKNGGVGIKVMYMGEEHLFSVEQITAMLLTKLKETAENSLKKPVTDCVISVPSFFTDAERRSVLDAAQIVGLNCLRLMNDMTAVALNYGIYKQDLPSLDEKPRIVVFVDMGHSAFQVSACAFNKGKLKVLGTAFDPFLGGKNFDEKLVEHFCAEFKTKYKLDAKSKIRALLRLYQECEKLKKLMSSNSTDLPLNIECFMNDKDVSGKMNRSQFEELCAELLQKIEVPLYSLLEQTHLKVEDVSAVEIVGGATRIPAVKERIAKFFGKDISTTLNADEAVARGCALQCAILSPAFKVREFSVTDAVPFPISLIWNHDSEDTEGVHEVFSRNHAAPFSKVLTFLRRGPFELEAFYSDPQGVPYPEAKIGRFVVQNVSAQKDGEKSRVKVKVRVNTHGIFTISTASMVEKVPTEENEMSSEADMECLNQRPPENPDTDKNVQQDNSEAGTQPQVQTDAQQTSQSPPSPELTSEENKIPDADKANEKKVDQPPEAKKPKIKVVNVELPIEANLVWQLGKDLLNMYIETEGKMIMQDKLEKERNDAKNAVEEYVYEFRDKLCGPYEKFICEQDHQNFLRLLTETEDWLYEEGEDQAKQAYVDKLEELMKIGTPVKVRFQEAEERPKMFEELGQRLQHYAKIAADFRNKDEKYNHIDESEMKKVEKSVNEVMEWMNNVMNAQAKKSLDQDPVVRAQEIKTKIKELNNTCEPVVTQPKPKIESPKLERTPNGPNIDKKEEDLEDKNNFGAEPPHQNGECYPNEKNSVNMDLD
UniProt P15090: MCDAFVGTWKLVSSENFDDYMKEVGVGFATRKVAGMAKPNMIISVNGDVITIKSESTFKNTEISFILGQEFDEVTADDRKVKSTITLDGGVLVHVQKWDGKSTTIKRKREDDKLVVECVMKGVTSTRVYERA
UniProt Q96MG8: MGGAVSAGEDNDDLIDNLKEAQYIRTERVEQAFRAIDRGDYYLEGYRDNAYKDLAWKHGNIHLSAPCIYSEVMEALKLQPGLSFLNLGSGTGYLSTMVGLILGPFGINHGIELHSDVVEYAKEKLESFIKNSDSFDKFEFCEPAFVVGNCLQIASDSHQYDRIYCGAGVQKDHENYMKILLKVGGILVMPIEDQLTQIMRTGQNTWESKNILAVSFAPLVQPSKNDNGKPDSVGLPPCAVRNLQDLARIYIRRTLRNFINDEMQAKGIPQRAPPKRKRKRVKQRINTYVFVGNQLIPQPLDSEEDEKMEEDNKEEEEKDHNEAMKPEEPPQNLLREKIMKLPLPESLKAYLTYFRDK
UniProt P11488: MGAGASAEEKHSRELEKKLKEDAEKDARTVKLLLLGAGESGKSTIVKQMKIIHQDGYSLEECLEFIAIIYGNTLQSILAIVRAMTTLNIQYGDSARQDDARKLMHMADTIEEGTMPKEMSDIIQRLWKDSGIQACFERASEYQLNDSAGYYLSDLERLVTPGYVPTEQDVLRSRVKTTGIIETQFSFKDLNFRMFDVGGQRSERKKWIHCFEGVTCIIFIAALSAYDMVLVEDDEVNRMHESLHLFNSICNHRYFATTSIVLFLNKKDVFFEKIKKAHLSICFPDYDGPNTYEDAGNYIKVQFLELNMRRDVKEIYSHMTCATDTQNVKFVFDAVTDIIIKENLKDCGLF
UniProt P13010: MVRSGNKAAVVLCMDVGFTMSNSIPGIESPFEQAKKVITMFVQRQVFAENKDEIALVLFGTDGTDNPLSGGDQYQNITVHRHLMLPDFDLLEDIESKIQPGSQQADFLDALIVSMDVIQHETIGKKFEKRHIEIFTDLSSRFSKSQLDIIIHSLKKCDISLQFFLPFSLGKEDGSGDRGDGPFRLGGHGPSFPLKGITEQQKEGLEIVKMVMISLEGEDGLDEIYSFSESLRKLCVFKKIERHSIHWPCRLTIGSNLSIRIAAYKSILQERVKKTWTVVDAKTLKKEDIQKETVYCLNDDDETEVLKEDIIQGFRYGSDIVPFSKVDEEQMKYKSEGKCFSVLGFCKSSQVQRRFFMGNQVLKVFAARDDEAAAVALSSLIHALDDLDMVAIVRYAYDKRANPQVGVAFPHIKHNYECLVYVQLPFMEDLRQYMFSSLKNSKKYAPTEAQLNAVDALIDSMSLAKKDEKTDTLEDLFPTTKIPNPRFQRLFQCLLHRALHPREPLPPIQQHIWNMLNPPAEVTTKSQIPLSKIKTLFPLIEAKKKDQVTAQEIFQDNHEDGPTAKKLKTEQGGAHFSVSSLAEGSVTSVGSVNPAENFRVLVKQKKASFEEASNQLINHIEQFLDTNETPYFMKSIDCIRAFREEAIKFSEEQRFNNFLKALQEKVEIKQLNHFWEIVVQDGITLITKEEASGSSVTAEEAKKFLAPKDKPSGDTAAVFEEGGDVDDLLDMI
UniProt P61224: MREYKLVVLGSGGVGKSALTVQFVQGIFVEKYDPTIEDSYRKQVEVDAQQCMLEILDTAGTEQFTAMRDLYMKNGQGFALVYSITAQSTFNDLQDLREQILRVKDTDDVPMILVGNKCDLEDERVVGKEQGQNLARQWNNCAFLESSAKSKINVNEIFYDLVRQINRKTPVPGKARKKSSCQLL
UniProt Q99436: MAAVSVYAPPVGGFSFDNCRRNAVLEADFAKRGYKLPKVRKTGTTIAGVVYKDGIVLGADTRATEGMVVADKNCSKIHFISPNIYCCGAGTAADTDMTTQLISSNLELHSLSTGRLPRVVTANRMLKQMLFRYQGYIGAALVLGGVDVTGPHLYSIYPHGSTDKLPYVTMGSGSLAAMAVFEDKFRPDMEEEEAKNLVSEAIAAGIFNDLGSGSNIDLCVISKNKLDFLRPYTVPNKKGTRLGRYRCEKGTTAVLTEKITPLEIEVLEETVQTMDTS
UniProt Q16799: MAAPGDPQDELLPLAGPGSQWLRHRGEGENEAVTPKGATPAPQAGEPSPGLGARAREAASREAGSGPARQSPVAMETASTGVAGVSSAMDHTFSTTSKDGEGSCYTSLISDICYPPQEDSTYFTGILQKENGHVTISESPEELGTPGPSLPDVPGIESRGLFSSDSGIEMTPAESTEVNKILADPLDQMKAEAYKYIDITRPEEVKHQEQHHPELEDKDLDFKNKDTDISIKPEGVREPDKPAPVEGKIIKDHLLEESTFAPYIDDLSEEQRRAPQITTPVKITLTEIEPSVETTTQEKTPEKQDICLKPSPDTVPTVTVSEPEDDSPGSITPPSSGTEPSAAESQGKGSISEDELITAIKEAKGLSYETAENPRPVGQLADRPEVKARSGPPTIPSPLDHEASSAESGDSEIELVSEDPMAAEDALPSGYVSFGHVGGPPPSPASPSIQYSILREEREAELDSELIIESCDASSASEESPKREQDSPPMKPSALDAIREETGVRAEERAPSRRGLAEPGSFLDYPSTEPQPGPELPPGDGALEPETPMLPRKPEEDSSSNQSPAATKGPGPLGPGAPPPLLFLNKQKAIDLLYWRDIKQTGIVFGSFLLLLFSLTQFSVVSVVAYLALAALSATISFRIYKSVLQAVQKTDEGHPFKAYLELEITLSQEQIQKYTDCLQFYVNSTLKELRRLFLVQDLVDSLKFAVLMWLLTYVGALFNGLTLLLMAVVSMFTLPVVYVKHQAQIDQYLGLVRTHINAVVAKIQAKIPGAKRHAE
UniProt P60953: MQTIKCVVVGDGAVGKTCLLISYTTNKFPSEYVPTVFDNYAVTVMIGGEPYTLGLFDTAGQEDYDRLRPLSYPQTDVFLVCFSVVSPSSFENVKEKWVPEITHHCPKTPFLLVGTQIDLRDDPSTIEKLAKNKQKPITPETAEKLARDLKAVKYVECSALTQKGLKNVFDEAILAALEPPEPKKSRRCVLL
UniProt P60900: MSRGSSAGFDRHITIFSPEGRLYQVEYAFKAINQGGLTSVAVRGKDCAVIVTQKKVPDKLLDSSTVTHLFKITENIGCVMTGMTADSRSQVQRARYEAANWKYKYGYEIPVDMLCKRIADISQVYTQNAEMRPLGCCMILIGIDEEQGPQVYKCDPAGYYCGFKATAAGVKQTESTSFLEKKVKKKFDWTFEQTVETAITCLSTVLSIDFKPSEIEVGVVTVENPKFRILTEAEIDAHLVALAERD
UniProt O15234: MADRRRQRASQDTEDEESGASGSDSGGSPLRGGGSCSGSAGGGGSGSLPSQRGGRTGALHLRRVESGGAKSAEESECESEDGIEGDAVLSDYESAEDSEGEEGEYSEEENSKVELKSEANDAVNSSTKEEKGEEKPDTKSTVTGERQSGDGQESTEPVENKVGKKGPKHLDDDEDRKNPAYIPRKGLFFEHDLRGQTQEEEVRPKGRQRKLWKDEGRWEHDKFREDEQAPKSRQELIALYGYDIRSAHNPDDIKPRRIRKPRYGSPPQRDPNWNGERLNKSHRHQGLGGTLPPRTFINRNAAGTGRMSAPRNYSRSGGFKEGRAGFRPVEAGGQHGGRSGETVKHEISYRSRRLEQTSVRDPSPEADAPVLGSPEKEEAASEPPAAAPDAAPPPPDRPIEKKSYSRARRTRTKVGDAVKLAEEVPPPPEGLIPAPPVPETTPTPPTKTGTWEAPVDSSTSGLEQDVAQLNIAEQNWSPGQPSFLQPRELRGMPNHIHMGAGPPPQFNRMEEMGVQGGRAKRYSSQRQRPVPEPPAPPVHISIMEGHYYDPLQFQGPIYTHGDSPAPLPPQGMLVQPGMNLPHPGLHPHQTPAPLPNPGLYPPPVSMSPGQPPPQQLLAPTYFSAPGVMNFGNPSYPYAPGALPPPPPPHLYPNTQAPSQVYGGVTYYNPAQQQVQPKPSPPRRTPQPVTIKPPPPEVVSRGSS
UniProt Q13296, residues 19-93: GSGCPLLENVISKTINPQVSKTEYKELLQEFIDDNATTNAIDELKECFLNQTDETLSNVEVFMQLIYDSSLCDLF
UniProt P20618: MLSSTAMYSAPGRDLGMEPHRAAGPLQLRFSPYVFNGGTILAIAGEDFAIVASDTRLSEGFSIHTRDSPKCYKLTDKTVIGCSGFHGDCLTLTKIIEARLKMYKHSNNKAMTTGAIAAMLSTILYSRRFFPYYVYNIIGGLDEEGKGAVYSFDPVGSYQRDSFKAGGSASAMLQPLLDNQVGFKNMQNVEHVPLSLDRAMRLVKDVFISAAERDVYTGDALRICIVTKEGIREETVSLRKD
UniProt B2RXH8: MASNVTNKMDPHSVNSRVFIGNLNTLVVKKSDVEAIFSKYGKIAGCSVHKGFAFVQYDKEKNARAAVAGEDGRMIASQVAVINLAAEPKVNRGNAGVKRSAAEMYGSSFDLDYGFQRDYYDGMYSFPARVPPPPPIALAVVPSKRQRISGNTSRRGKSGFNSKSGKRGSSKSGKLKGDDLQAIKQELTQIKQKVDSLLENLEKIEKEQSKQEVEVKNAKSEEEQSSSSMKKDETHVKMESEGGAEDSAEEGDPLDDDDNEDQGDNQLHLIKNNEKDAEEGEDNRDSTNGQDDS

First the molecules themselves.
T1: HA::AdipoR2 (human) (UniProt Q86V24)
T1 sequence: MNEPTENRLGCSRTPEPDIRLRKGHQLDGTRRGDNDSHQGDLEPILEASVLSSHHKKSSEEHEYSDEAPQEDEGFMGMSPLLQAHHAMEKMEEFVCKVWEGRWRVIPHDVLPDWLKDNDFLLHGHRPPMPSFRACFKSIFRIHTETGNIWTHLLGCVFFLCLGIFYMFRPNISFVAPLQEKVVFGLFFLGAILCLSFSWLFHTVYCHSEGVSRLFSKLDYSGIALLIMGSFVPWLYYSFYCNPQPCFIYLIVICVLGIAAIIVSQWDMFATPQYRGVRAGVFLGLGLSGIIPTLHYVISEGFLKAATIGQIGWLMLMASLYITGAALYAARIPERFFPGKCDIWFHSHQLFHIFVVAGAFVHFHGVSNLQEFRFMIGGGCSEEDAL

B1: Very-long-chain (3R)-3-hydroxyacyl-CoA dehydratase 3 (enzyme, UniProt Q9P035 1-362)
chain: MENQVLTPHVYWAQRHRELYLRVELSDVQNPAISITENVLHFKAQGHGAKGDNVYEFHLEFLDLVKPEPVYKLTQRQVNITVQKKVSQWWERLTKQEKRPLFLAPDFDRWLDESDAEMELRAKEEERLNKLRLESEGSPETLTNLRKGYLFMYNLVQFLGFSWIFVNLTVRFCILGKESFYDTFHTVADMMYFCQMLAVVETINAAIGVTTSPVLPSLIQLLGRNFILFIIFGTMEEMQNKAVVFFVFYLWSAIEIFRYSFYMLTCIDMDWKVLTWLRYTLWIPLYPLGCLAEAVSVIQSIPIFNETGRFSFTLPYPVKIKVRFSFFLQIYLIMIFLGLYINFRHLYKQRRRRYGQKKKKIH
B2: Inositol monophosphatase 2 (enzyme, UniProt O14732 1-288)
chain: MKPSGEDQAALAAGPWEECFQAAVQLALRAGQIIRKALTEEKRVSTKTSAADLVTETDHLVEDLIISELRERFPSHRFIAEEAAASGAKCVLTHSPTWIIDPIDGTCNFVHRFPTVAVSIGFAVRQELEFGVIYHCTEERLYTGRRGRGAFCNGQRLRVSGETDLSKALVLTEIGPKRDPATLKLFLSNMERLLHAKAHGVRVIGSSTLALCHLASGAADAYYQFGLHCWDLAAATVIIREAGGIVIDTSGGPLDLMACRVVAASTREMAMLIAQALQTINYGRDDEK
B3: Gamma-glutamyltransferase 7 (protein, UniProt Q9UJ14 1-662)
chain: MAAENEASQESALGAYSPVDYMSITSFPRLPEDEPAPAAPLRGRKDEDAFLGDPDTDPDSFLKSARLQRLPSSSSEMGSQDGSPLRETRKDPFSAAAAECSCRQDGLTVIVTACLTFATGVTVALVMQIYFGDPQIFQQGAVVTDAARCTSLGIEVLSKQGSSVDAAVAAALCLGIVAPHSSGLGGGGVMLVHDIRRNESHLIDFRESAPGALREETLQRSWETKPGLLVGVPGMVKGLHEAHQLYGRLPWSQVLAFAAAVAQDGFNVTHDLARALAEQLPPNMSERFRETFLPSGRPPLPGSLLHRPDLAEVLDVLGTSGPAAFYAGGNLTLEMVAEAQHAGGVITEEDFSNYSALVEKPVCGVYRGHLVLSPPPPHTGPALISALNILEGFNLTSLVSREQALHWVAETLKIALALASRLGDPVYDSTITESMDDMLSKVEAAYLRGHINDSQAAPAPLLPVYELDGAPTAAQVLIMGPDDFIVAMVSSLNQPFGSGLITPSGILLNSQMLDFSWPNRTANHSAPSLENSVQPGKRPLSFLLPTVVRPAEGLCGTYLALGANGAARGLSGLTQVLLNVLTLNRNLSDSLARGRLHPDLQSNLLQVDSEFTEEEIEFLEARGHHVEKVDVLSWVHGSRRTNNFIIAVKDPRSPDAAGATIL
B4: Prostaglandin E synthase 3 (protein, UniProt Q15185 1-160)
chain: MQPASAKWYDRRDYVFIEFCVEDSKDVNVNFEKSKLTFSCLGGSDNFKHLNEIDLFHCIDPNDSKHKRTDRSILCCLRKGESGQSWPRLTKERAKLNWLSVDFNNWKDWEDDSDEDMSNFDRFSEMMNNMGGDEDVDLPEVDGADDDSQDSDDEKMPDLE
B5: Glycerophosphodiester phosphodiesterase domain-containing protein 3 (protein, UniProt Q7L5L3 1-318)
chain: MSLLLYYALPALGSYAMLSIFFLRRPHLLHTPRAPTFRIRLGAHRGGSGELLENTMEAMENSMAQRSDLLELDCQLTRDRVVVVSHDENLCRQSGLNRDVGSLDFEDLPLYKEKLEVYFSPGHFAHGSDRRMVRLEDLFQRFPRTPMSVEIKGKNEELIREIAGLVRRYDRNEITIWASEKSSVMKKCKAANPEMPLSFTISRGFWVLLSYYLGLLPFIPIPEKFFFCFLPNIINRTYFPFSCSCLNQLLAVVSKWLIMRKSLIRHLEERGVQVVFWCLNEESDFEAAFSVGATGVITDYPTALRHYLDNHGPAARTS
B6: Fructose-bisphosphate aldolase C (protein, UniProt P09972 1-364)
chain: MPHSYPALSAEQKKELSDIALRIVAPGKGILAADESVGSMAKRLSQIGVENTEENRRLYRQVLFSADDRVKKCIGGVIFFHETLYQKDDNGVPFVRTIQDKGIVVGIKVDKGVVPLAGTDGETTTQGLDGLSERCAQYKKDGADFAKWRCVLKISERTPSALAILENANVLARYASICQQNGIVPIVEPEILPDGDHDLKRCQYVTEKVLAAVYKALSDHHVYLEGTLLKPNMVTPGHACPIKYTPEEIAMATVTALRRTVPPAVPGVTFLSGGQSEEEASFNLNAINRCPLPRPWALTFSYGRALQASALNAWRGQRDNAGAATEEFIKRAEVNGLAAQGKYEGSGEDGGAAAQSLYIANHAY
B7: Probable histidine–tRNA ligase, mitochondrial (enzyme, UniProt P49590 34-506)
chain: QSQVAEAVLTSQLKAHQEKPNFIIKTPKGTRDLSPQHMVVREKILDLVISCFKRHGAKGMDTPAFELKETLTEKYGEDSGLMYDLKDQGGELLSLRYDLTVPFARYLAMNKVKKMKRYHVGKVWRRESPTIVQGRYREFCQCDFDIAGQFDPMIPDAECLKIMCEILSGLQLGDFLIKVNDRRIVDGMFAVCGVPESKFRAICSSIDKLDKMAWKDVRHEMVVKKGLAPEVADRIGDYVQCHGGVSLVEQMFQDPRLSQNKQALEGLGDLKLLFEYLTLFGIADKISFDLSLARGLDYYTGVIYEAVLLQTPTQAGEEPLNVGSVAAGGRYDGLVGMFDPKGHKVPCVGLSIGVERIFYIVEQRMKTKGEKVRTTETQVFVATPQKNFLQERLKLIAELWDSGIKAEMLYKNNPKLLTQLHYCESTGIPLVVIIGEQELKEGVIKIRSVASREEVAIKRENFVAEIQKRLSES
B8: Kallikrein-10 (protein, UniProt O43240 31-276)
chain: AEAALLPQNDTRLDPEAYGSPCARGSQPWQVSLFNGLSFHCAGVLVDQSWVLTAAHCGNKPLWARVGDDHLLLLQGEQLRRTTRSVVHPKYHQGSGPILPRRTDEHDLMLLKLARPVVLGPRVRALQLPYRCAQPGDQCQVAGWGTTAARRVKYNKGLTCSSITILSPKECEVFYPGVVTNNMICAGLDRGQDPCQSDSGGPLVCDETLQGILSWGVYPCGSAQHPAVYTQICKYMSWINKVIRSN
B9: Phospholipase B-like 1 (protein, UniProt Q6P4A8 39-553)
chain: GVYYATAYWMPAEKTVQVKNVMDKNGDAYGFYNNSVKTTGWGILEIRAGYGSQTLSNEIIMFVAGFLEGYLTAPHMNDHYTNLYPQLITKPSIMDKVQDFMEKQDKWTRKNIKEYKTDSFWRHTGYVMAQIDGLYVGAKKRAILEGTKPMTLFQIQFLNSVGDLLDLIPSLSPTKNGSLKVFKRWDMGHCSALIKVLPGFENILFAHSSWYTYAAMLRIYKHWDFNVIDKDTSSSRLSFSSYPGFLESLDDFYILSSGLILLQTTNSVFNKTLLKQVIPETLLSWQRVRVANMMADSGKRWADIFSKYNSGTYNNQYMVLDLKKVKLNHSLDKGTLYIVEQIPTYVEYSEQTDVLRKGYWPSYNVPFHEKIYNWSGYPLLVQKLGLDYSYDLAPRAKIFRRDQGKVTDTASMKYIMRYNNYKKDPYSRGDPCNTICCREDLNSPNPSPGGCYDTKVADIYLASQYTSYAISGPTVQGGLPVFRWDRFNKTLHQGMPEVYNFDFITMKPILKLDIK

Results are given in words; binding and its absence hold for the method and conditions named. In cells and extracts the contact can be indirect. A yes stands for co-enrichment or nearness to the bait. Other partners may have been found. Tags and fused reporters may be left off the sequences shown.

This assay concerns the target T1, HA::AdipoR2 (human). In words: affinity purification with mass spectrometry; anti-HA immunoprecipitation (rabbit mAb C29F4 + protein A-agarose, 3 h) from lysates of HEK293 cells stably expressing HA-tagged AdipoR2; 25 mM Tris pH 7.5, 300 mM NaCl, 0.1% NP-40; eluted with 0.2 M glycine pH 2.5; 4 IPs; control: cells without HA-tagged protein.
As to “BAG family molecular chaperone regulator 2 (from UniProt O95816 1-211)”, the binding entry is on record as “binds”.
For “Small nuclear ribonucleoprotein Sm D2 (from UniProt P62316 1-118)” the value was “binds”; for “High mobility group protein HMGI-C (from UniProt P52926 1-109)”, “binds”.
For “Dynein light chain 1, cytoplasmic (from UniProt P63167 1-89)” the value was “binds”.
In the case of “Heat shock protein 105 kDa (from UniProt Q92598 1-858)”, the binding result is on record as “binds”.
For “Fatty acid–binding protein, adipocyte (from UniProt P15090 1-132)” the value was “binds”; for “Protein-L-isoaspartate O-methyltransferase domain-containing protein 1 (from UniProt Q96MG8 1-357)”, “binds”; for “Guanine nucleotide-binding protein G(t) subunit alpha-1 (from UniProt P11488 1-350)”, “binds”.
Take “X-ray repair cross-complementing protein 5 (from UniProt P13010 1-732)”: the binding result was “binds”.
As for “Ras-related protein Rap-1b (from UniProt P61224 1-184)”, the binding result was “binds”.
As to “Proteasome subunit beta type 7 (from UniProt Q99436)”, the binding entry is “binds”.
In the case of Reticulon-1 (from UniProt Q16799 1-776), the binding entry is on record as “binds”.
In the case of “Troponin I, cardiac muscle (from UniProt P19429 1-210)”, the binding entry was “binds”.
For “Cell division control protein 42 homolog (from UniProt P60953 1-191)” the value was “binds”.
For the molecule “Proteasome subunit alpha type 6 (from UniProt P60900 1-246)”, the binding result is “binds”.
On to “Protein CASC3 (from UniProt O15234 1-703)”, for which the binding result is recorded as “binds”.
For “Mammaglobin-A (from UniProt Q13296 19-93)” the value was “binds”.
As to “Proactivator polypeptide-like 1 (human (endogenous in HEK293))”, the binding result was “binds”.
Take “Proteasome subunit beta type 1 (from UniProt P20618)”: the binding entry is reported as “binds”.
Under “Heterogeneous nuclear ribonucleoprotein C-like 2 (from UniProt B2RXH8 1-293)” stands “binds”; under B1, “binds”.
On to B2, for which the binding entry is given as “binds”.
As to B3, the binding entry is on record as “binds”.
For B4, the binding result is listed as “binds”.
For B5 the value was “binds”; for B6, “binds”; for B7, “binds”.
Consider B8, for which the binding entry was “binds”.
Take B9: the binding result was “binds”.
